Reference: PubChem BioAssay AID1159579 (Peter MacCallum Cancer Centre, 2015)

- Assay: 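Retest candidate lymphatic endothelial migration regulators using several independent siRNAs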 (follow-up of hits)
- Cell system: human dermal lymphatic endothelial cells
- Reagent: single siRNA against human genes, 25 nM
- Measurement: 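High content images of wound closure area and cell nuclei counts, each the average of two wells, expressed against mock transfection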
- Scale: migration relative to mock: higher = more migration into the scratch; mean nuclei count: higher = more cells remaining
- Rule for the call: 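a ratio of at most 0.6 or at least 1.3 marks altered migration and an active call; a mean nuclei count under 3300 forces an inactive call regardless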
- Calls: active = migration changed (impaired or accelerated); inactive = no migration change, or too few cells
The whole screen tested about 2,000 reagents; shown is a random part of them. 549 of all reagents (27%) were called active. 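Some migration ratios are negative; siRNAs with too few cells are inactive whatever their migration ratio.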 Unmarked entries are inactive. The numbers tell different reagents against one gene apart. No sequences are given here. Not given: the time to read-out.

gene	reagent	migration relative to mock	migration and cell number class	mean nuclei count
ELP2	1	0.55 (active)	migration reduced	4472
ELP2	2	0.93	no change in migration or cell number	6995
ELP2	3	0.98	no change in migration or cell number	6119
ELP2	4	0.6 (active)	migration reduced	5532
MYBL2	1	1.12	no change in migration or cell number	6166
MYBL2	2	1.02	no change in migration or cell number	6572
MYBL2	3	1.04	no change in migration or cell number	5798
MYBL2	4	0.14 (active)	migration reduced	5422
CDK7	1	0.62	no change in migration or cell number	5756
CDK7	2	0.78	no change in migration or cell number	5175
CDK7	3	0.8	no change in migration or cell number	6029
CDK7	4	0.8	no change in migration or cell number	5498
FMN2	1	1	no change in migration or cell number	5813
FMN2	2	1.02	no change in migration or cell number	5478
FMN2	3	1.46 (active)	migration increased	4988
FMN2	4	0.86	no change in migration or cell number	4433
BTK	1	1	no change in migration or cell number	6509
BTK	2	0.6 (active)	migration reduced	6818
BTK	3	0.76	no change in migration or cell number	6174
BTK	4	0.09 (active)	migration reduced	5144
CCL23	1	1.16	no change in migration or cell number	5526
CCL23	2	1.14	no change in migration or cell number	5366
CCL23	3	1.12	no change in migration or cell number	5751
CCL23	4	-0.1 (active)	migration reduced	4304
PLXDC2	1	1.1	no change in migration or cell number	6264
PLXDC2	2	0.77	no change in migration or cell number	4758
PLXDC2	3	0.7	no change in migration or cell number	4621
PLXDC2	4	0.86	no change in migration or cell number	4794

Continued; the last 7 above are carried over.
gene	reagent	migration relative to mock	migration and cell number class	mean nuclei count
CCL23	2	1.14	no change in migration or cell number	5366
CCL23	3	1.12	no change in migration or cell number	5751
CCL23	4	-0.1 (active)	migration reduced	4304
PLXDC2	1	1.1	no change in migration or cell number	6264
PLXDC2	2	0.77	no change in migration or cell number	4758
PLXDC2	3	0.7	no change in migration or cell number	4621
PLXDC2	4	0.86	no change in migration or cell number	4794
RBM24	1	1.23	no change in migration or cell number	6034
RBM24	2	0.92	no change in migration or cell number	4768
RBM24	3	0.42 (active)	migration reduced	5203
RBM24	4	0.76	no change in migration or cell number	5204
JUN	1	0.76	no change in migration or cell number	6274
JUN	2	0.98	no change in migration or cell number	6306
JUN	3	0.06 (active)	migration reduced	3632
JUN	4	0.58 (active)	migration reduced	7258
IL1B	1	0.8	no change in migration or cell number	7000
IL1B	2	0.46 (active)	migration reduced	4848
IL1B	3	0.58 (active)	migration reduced	4634
IL1B	4	0.21 (active)	migration reduced	4949
COL11A1	1	0.94	no change in migration or cell number	5775
COL11A1	2	0.67	no change in migration or cell number	4996
COL11A1	3	0.88	no change in migration or cell number	5738
COL11A1	4	1.08	no change in migration or cell number	5067
PI4K2A	1	1.01	no change in migration or cell number	4546
PI4K2A	2	0.65	no change in migration or cell number	5088
PI4K2A	3	0.84	no change in migration or cell number	6174
PI4K2A	4	1	no change in migration or cell number	6793
HIGD1B	1	0.62	no change in migration or cell number	4387
HIGD1B	2	0.9	no change in migration or cell number	7478
HIGD1B	3	0.99	no change in migration or cell number	4910
HIGD1B	4	0.6 (active)	migration reduced	4668
L1CAM-AS1	1	0.32 (active)	migration reduced	3907
L1CAM-AS1	2	0.51 (active)	migration reduced	3312
L1CAM-AS1	3	0.86	no change in migration or cell number	4628
L1CAM-AS1	4	0.69	no change in migration or cell number	6102
HSPA5	1	1.04	no change in migration or cell number	7137
HSPA5	2	1.08	no change in migration or cell number	5766
HSPA5	3	0.98	no change in migration or cell number	6862
HSPA5	4	0.74	no change in migration or cell number	5270
LZTS3	1	0.15 (active)	migration reduced	4144
LZTS3	2	1.08	no change in migration or cell number	6234
LZTS3	3	0.99	no change in migration or cell number	6633
LZTS3	4	1.02	no change in migration or cell number	5689
OTOS	1	1	no change in migration or cell number	5468
OTOS	2	0 (active)	migration reduced	3560
OTOS	3	0.78	no change in migration or cell number	6110
OTOS	4	0.93	no change in migration or cell number	5934
